Data as given in PubChem BioAssay AID652259 (Drosophila RNAi Screening Center, 2013)

- Aim: 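Identify new Wingless signalling regulators in fly cells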 (primary screen)
- System: Drosophila clone 8 imaginal disc epithelial cells
- Reagent: long dsRNA against Drosophila genes
- Conditions: pathway stimulated by co-transfected Wingless expression plasmid
- Measurement: 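Firefly luciferase from a tcf-site Wingless reporter, measured alongside co-transfected Renilla luciferase that tracks transfection; pathway stimulated by a Wingless plasmid; the firefly-to-Renilla ratio is not deposited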
- Scale: firefly reporter light: higher = more Wg reporter light, before normalisation; Renilla control light: higher = more transfected or surviving cells
- Active means: 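a knock-down is a candidate when at least two out of four statistical tests show it departing from its plate mean; one test alone signals a weak candidate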
- Meaning of the calls: active = candidate regulator (raises or lowers reporter); inactive = not a candidate
The deposit covers about 22,000 reagents; this is an unselected part of those that have a named target and a result. In the full data, 233 (1.1%) are marked active. 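Light values are raw, unnormalised plate reads; the ratio scores behind the reporter calls were not deposited.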 Unmarked entries are inactive. Names joined by + are all predicted targets of the reagent. No sequences are given here. The record does not give: the amount of reagent, the time to read-out, the dose of the treatment.

predicted target | DRSC id | reporter change call, replicate 1 | firefly reporter light, replicate 1 | firefly reporter light, replicate 2 | Renilla control light, replicate 1 | Renilla control light, replicate 2
prim | DRSC06575 | – | 6320 | – | 2754 | –
rho-4 | DRSC19761 | – | 4290 | 12932 | 1168 | 4054
rho-4 | DRSC19762 | – | 20365 | – | 11234 | –
metro | DRSC06341 | – | 10873 | – | 3017 | –
metro | DRSC06725 | – | 6177 | – | 2825 | –
St4 | DRSC07008 | – | 6448 | – | 1737 | –
CG34178 + CG34177 | DRSC00351 | – | 2200 | 5108 | 666 | 2109
TrpA1 | DRSC10544 | – | 738 | 5802 | 768 | 2444
PIG-U | DRSC02193 | – | 5147 | – | 1484 | –
Cdc42 | DRSC20228 | – | 21292 | – | 8971 | –
CG7394 | DRSC10835 | – | 6492 | – | 2661 | –
CG34310 | DRSC00943 | – | 19544 | – | 11405 | –
CG34417 | DRSC17467 | – | 3373 | – | 849 | –
CG34417 | DRSC18332 | – | 23936 | – | 11520 | –
CG34417 | DRSC18333 | – | 2343 | 7104 | 609 | 2169
CG17168 | DRSC20904 | – | 14593 | – | 8620 | –
CG9426 | DRSC03219 | – | 1954 | 6712 | 1016 | 2090
CG31917 + Tfb5 | DRSC02362 | Wg reporter activity raised | 7668 | 15522 | 832 | 2284
CG31917 + Tfb5 | DRSC02363 | – | 2650 | 5869 | 484 | 1196
CG2278 | DRSC18226 | – | 14521 | – | 7205 | –
Adk1 | DRSC15514 | – | 13654 | – | 4663 | –
heph | DRSC14082 | – | 7768 | – | 2289 | –
heph | DRSC14085 | – | 2485 | – | 961 | –
heph | DRSC15436 | – | 29910 | – | 12599 | –
heph | DRSC16783 | – | 18828 | – | 10233 | –
CG14933 + CG42486 | DRSC02415 | – | 2904 | 11764 | 1831 | 5305
Gbs-76A | DRSC11081 | – | 7232 | – | 2877 | –
CG13046 | DRSC09927 | – | 5980 | – | 2278 | –
Cyt-b5-r | DRSC03308 | – | 4304 | 8950 | 841 | 4316
